Measurements: publication PMC11154708
These are yes or no findings as the source states them, for the method shown. For some assays here: Binding seen in cells or lysates may run through a third protein. Some entries that bind do so weakly or less than the wild type.

Protein sequences, listed by entry. Tags and fused reporters are not part of them.
UniProt P25454: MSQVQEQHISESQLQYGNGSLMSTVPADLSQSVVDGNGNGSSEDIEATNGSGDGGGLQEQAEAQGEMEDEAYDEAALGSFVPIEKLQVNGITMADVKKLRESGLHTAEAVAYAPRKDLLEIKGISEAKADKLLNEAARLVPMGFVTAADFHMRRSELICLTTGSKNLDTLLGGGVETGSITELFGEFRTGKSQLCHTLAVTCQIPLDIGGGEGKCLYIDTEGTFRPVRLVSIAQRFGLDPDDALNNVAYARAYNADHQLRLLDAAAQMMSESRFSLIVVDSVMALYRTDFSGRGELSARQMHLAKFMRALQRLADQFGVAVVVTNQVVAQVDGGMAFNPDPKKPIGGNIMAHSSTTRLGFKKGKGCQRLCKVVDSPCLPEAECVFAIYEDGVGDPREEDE
UniProt Q12449: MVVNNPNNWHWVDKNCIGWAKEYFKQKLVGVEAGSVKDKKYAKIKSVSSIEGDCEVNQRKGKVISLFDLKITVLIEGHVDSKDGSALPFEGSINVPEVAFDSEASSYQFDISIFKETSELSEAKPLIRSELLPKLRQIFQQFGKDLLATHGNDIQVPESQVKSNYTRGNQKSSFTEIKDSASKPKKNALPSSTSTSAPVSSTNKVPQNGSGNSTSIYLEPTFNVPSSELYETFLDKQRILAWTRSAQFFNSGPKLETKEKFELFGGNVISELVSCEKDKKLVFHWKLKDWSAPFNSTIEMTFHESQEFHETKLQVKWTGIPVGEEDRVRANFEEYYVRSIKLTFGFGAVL

Key:
[1] = biological target: Rad51 (S. cerevisiae) (UniProt P25454); assay: co-IP; Rad51 immunoprecipitated with anti-Rad51 antibody from yeast lysates (Rad51 overexpressed from a plasmid), IP fraction blotted for Hsp82 and Aha1; strains WT, hda1Δ, aha1Δ and hsp82 mutant strains (K27Q, K27R, K274Q, K274R, K178R); rad51Δ as negative control; blots quantified with Image J
[2] = biological target: Rad51, yeast two-hybrid fusion (S. cerevisiae) (UniProt P25454); assay: two-hybrid; bait (pGBDUC1) and prey (pGADC1) vectors in PJ69-4A; serial dilutions spotted on SC-Leu-Ura- and SC-Leu-Ura-His- (HIS3 reporter), 30 °C, 4 days

Row | binding [1] | binding [2] | Substance
1 | binds | – | Aha1 (from UniProt Q12449 1-350)
2 | – | binds weakly | Aha1, yeast two-hybrid fusion (from UniProt Q12449 1-350)
